# Measurements published in patent publication US20120213794A1.
# Protein sequences, listed by entry. Tags and fused reporters are not part of them. Lines headed by an entry give the natural chain unless they say otherwise; changes in a name come on top.
# UniProt P55899: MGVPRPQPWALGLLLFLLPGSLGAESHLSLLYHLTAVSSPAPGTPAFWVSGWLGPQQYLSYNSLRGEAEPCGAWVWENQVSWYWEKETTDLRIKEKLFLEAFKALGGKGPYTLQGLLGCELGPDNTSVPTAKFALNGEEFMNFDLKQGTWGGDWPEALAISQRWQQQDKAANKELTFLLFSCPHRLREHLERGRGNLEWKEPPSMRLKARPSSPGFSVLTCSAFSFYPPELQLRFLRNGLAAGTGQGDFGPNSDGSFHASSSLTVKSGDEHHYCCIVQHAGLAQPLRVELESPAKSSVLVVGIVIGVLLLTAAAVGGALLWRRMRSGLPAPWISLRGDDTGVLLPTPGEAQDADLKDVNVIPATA
# No constants are given. Whether binding was seen depends on the method and setting. Binding calls can cover weak binding; strength is not graded here.
# Target: human FcRn (human) (UniProt P55899)
# Assay: Biacore T-100; FcRn immobilized on CM5, 100 nM mAb at pH 6.0, dissociation at pH 7.3
row,Binder,binding
1,AX132 IgG2 (antibody) heavy: EVQLLESGGGLVQPGGSLRLSCKASGYTFSSYGMYWVRQAPGKGLEWIGWIDPGSGGTKYNEKFKGKATISRDNSKNTLYLQMNSLRAEDTAVYYCARERYGYYFDYWGQGTLVTVSSASTKGPSVFPLAPCSRSTSESTAALGCLVKDYFPEPVTVSWNSGALTSGVHTFPAVLQSSGLYSLSSVVTVPSSNFGTQTYTCNVDHKPSNTKVDKTVERKCCVECPPCPAPPVAGPSVFLFPPKPKDTLMISRTPEVTCVVVDVSHEDPEVQFNWYVDGVEVHNAKTKPREEQFNSTFRVVSVLTVVHQDWLNGKEYKCKVSNKGLPAPIEKTISKTKGQPREPQVYTLPPSREEMTKNQVSLTCLVKGFYPSDIAVEWESNGQPENNYKTTPPMLDSDGSFFLYSKLTVDKSRWQQGNVFSCSVMHEALHNHYTQKSLSLSPGK VL: EIVLTQSPATLSLSPGERATITCRASQYVGSYLNWYQQKPGQAPRLLIYDASNRATGIPARFSGSGSGTDFTLTISSLEPEDFAVYYCQVWDSSPPVVFGGGTKVEIK,binds
2,AX213 IgG2 (antibody) heavy: EVQLLESGGGLVQPGGSLRLSCKASGYTFSRYGINWVRQAPGKGLEWIGRIDPGNGGTRYNEKFKGKATISRDNSKNTLYLQMNSLRAEDTAVYYCARANDGYSFDYWGQGTLVTVSSASTKGPSVFPLAPCSRSTSESTAALGCLVKDYFPEPVTVSWNSGALTSGVHTFPAVLQSSGLYSLSSVVTVPSSNFGTQTYTCNVDHKPSNTKVDKTVERKCCVECPPCPAPPVAGPSVFLFPPKPKDTLMISRTPEVTCVVVDVSHEDPEVQFNWYVDGVEVHNAKTKPREEQFNSTFRVVSVLTVVHQDWLNGKEYKCKVSNKGLPAPIEKTISKTKGQPREPQVYTLPPSREEMTKNQVSLTCLVKGFYPSDIAVEWESNGQPENNYKTTPPMLDSDGSFFLYSKLTVDKSRWQQGNVFSCSVMHEALHNHYTQKSLSLSPGK light: EIVLTQSPATLSLSPGERATITCRASQYVGSYLNWYQQKPGQAPRLLIYDASNRATGIPARFSGSGSGTDFTLTISSLEPEDFAVYYCQVWDSSPPVVFGGGTKVEIKRTVAAPSVFIFPPSDEQLKSGTASVVCLLNNFYPREAKVQWKVDNALQSGNSQESVTEQDSKDSTYSLSSTLTLSKADYEKHKVYACEVTHQGLSSPVTKSFNRGEC,binds
